In patent publication US20100080800A1:
No constants are given. Whether binding was seen depends on the method and setting. Some results given as binding are weak or reduced against the parent protein; the word gives no strength. Values belong to the binder of their own block, whether it stands above or below them.

By UniProt entry, the sequences of proteins in these tests, tags left out. Residues count along the entry.
UniProt P05067, residues 672-713: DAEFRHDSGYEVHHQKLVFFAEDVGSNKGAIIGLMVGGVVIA

Assays:
[1] = biological target: Amyloid Beta (antigen of the Amyloid Beta ELISA) (UniProt P05067); test: Amyloid Beta ELISA, conditioned medium from transient transfection
[2] = biological target: Amyloid Beta (antigen of the Amyloid Beta ELISA) (UniProt P05067); test: Amyloid Beta ELISA, conditioned medium from transient transfection of HEK293 cells
[3] = biological target: Amyloid Beta (antigen of the Amyloid Beta ELISA) (UniProt P05067); test: Amyloid Beta ELISA, antibody purified from NS0 cells
[4] = biological target: T1, Aβ13-21 peptide with glycine at position 21; test: ELISA, third peptide library, hC2 at 200 ng/ml
T1 sequence (peptide, biotinylated): HHQKLVFFG

[5] = biological target: T2, Aβ14-22 peptide with alanine at position 22; test: ELISA, third peptide library, hC2 at 200 ng/ml
T2 sequence (peptide, biotinylated): HQKLVFFAA

[6] = biological target: T3, Aβ12-20 peptide (peptide 12); test: ELISA on overlapping peptides of Aβ1-42 (legend of FIG. 15A)
T3 sequence (peptide, biotinylated): VHHQKLVFF

[7] = biological target: T4, Aβ13-21 peptide (peptide 13); test: as above
T4 sequence (peptide, biotinylated): HHQKLVFFA

[8] = biological target: T5, Aβ14-22 peptide (peptide 14); test: as above
T5 sequence (peptide, biotinylated): HQKLVFFAE

[9] = biological target: T6, Aβ15-23 peptide (peptide 15); test: as above
T6 sequence (peptide, biotinylated): QKLVFFAED

[10] = biological target: T7, Aβ16-24 peptide (peptide 16); test: as above
T7 sequence (peptide, biotinylated): KLVFFAEDV

[11] = biological target: T8, Aβ12-20 peptide with alanine at position 15; test: ELISA, alanine-substituted Aβ12-20 peptides, hC2 at 200 ng/ml
T8 sequence (peptide, biotinylated): VHHAKLVFF

[12] = biological target: T9, Aβ12-20 peptide with alanine at position 18; test: as above
T9 sequence (peptide, biotinylated): VHHQKLAFF

[13] = biological target: T3, Aβ12-20 peptide (peptide 12); test: ELISA, biotinylated peptides on streptavidin plates, hC2 at 200 ng/ml
[14] = biological target: T4, Aβ13-21 peptide (peptide 13); test: as above
[15] = biological target: T5, Aβ14-22 peptide (peptide 14); test: as above
[16] = biological target: T6, Aβ15-23 peptide (peptide 15); test: as above
[17] = biological target: T7, Aβ16-24 peptide (peptide 16); test: as above
A12 = biological target: T10, A12; test: ELISA, biotinylated peptide on streptavidin plate, antibody at 200 ng/ml, AP anti-human IgG, 405 nm
T10 sequence (peptide, biotinylated (position not given)): AHHQKLVFF

A13 = biological target: T11, A13; test: as above
T11 sequence (peptide, biotinylated (position not given)): VAHQKLVFF

A14 = biological target: T12, A14; test: as above
T12 sequence (peptide, biotinylated (position not given)): VHAQKLVFF

[18] = biological target: T3, Aβ12-20 peptide (peptide 12); test: as above
[19] = biological target: T8, Aβ12-20 peptide with alanine at position 15; test: as above
[20] = biological target: T9, Aβ12-20 peptide with alanine at position 18; test: as above
[21] = biological target: T4, Aβ13-21 peptide (peptide 13); test: as above
[22] = biological target: T1, Aβ13-21 peptide with glycine at position 21; test: as above
[23] = biological target: T5, Aβ14-22 peptide (peptide 14); test: as above
[24] = biological target: T2, Aβ14-22 peptide with alanine at position 22; test: as above
[25] = biological target: T6, Aβ15-23 peptide (peptide 15); test: as above
[26] = biological target: T7, Aβ16-24 peptide (peptide 16); test: as above
[27] = biological target: Amyloid Beta (antigen of the Amyloid Beta ELISA) (UniProt P05067); test: Amyloid Beta ELISA, purified antibody
[28] = biological target: amyloid plaques in human brain sections (human) (UniProt P05067); test: immunohistochemistry, human brain paraffin sections pretreated with formic acid; paraffin sections of AD brain pretreated with formic acid

binding [1]: binds
binding [2]: binds
B1: VK-R antibody (mC2 VK-R with chimeric C2 VH) (antibody, V domains shown)
VH: EVQLVESGGGLVQPGGSLKLSCAASGFTFSSYGMSWVRQTPDKRLELVASINSNGGSTYYPDSVKGRFTISRDNAKNTLYLQMSSLKSEDTAMYYCASGDYWGQGSTLTVSS
VL: DVVMTQTPLSLPVSLGDQASISCRSSQSLVYSNGDTYLHWYLQKPGQSPKLLIYRVSNRFSGVPDRFSGSGSGTDFTLKISRVEAEDLGVYFCSQSTHVPWTFGGGTKLEIK

binding [1]: binds
binding [2]: binds
B2: VK-S antibody (mC2 VK-S with chimeric C2 VH) (antibody, V domains shown)
VH: EVQLVESGGGLVQPGGSLKLSCAASGFTFSSYGMSWVRQTPDKRLELVASINSNGGSTYYPDSVKGRFTISRDNAKNTLYLQMSSLKSEDTAMYYCASGDYWGQGSTLTVSS
VL: DVVMTQTPLSLPVSLGDQASISCRSSQSLVYSNGDTYLHWYLQKPGQSPKLLIYKVSSRFSGVPDRFSGSGSGTDFTLKISRVEAEDLGVYFCSQSTHVPWTFGGGTKLEIK

binding [3]: binds
B3: C2HuVH4/HuVK2 humanized antibody (antibody, human IgG4 S228P, kappa, V domains shown)
VH: EVQLVESGGGLVQPGGSLRLSCAASGFTFSSYGMSWVRQAPGKGLELVASINSNGGSTYYPDSVKGRFTISRDNAKNSLYLQMNSLRAEDTAVYYCASGDYWGQGTTVTVSS
VL: DIVMTQSPLSLPVTPGEPASISCRSSQSLVYSNGDTYLHWYLQKPGQSPQLLIYKVSNRFSGVPDRFSGSGSGTDFTLKISRVEAEDVGVYFCSQSTHVPWTFGQGTKVEIKR

binding [3]: binds
B4: C2 HuVH2/HuVK4 humanized antibody (antibody, human IgG4 S228P, kappa, V domains shown)
VH: EVQLVESGGGLVQPGGSLRLSCAASGFTFSSYGMSWVRQAPGKGLEWVASINSNGGSTYYPDSVKGRFTISRDNAKNSLYLQMNSLRAEDTAVYYCASGDYWGQGTTVTVSS
VL: DIVMTQSPLSLPVTPGEPASISCRSSQSLVYSNGDTYLHWYLQKPGQSPKLLIYKVSNRFSGVPDRFSGSGSGTDFTLKISRVEAEDVGVYFCSQSTHVPWTFGQGTKVEIKR

binding [4]: binds
binding [5]: binds
binding [6]: binds
binding [7]: binds
binding [8]: binds
binding [9]: binds
binding [10]: binds
binding [11]: binds
binding [12]: binds
binding [13]: binds
binding [14]: binds
binding [15]: binds
binding [16]: binds
binding [17]: binds
binding (A12): binds
binding (A13): binds
binding (A14): binds
binding [18]: binds
binding [19]: binds
binding [20]: binds
binding [21]: binds
binding [22]: binds
binding [23]: binds
binding [24]: binds
binding [25]: binds
binding [26]: binds
B5: humanized monoclonal antibody hC2 (antibody, human IgG4 S228P, kappa, V domains shown)
VH: EVQLVESGGGLVQPGGSLRLSCAASGFTFSSYGMSWVRQAPGKGLELVASINSNGGSTYYPDSVKGRFTISRDNAKNSLYLQMNSLRAEDTAVYYCASGDYWGQGTTVTVSS
VL: DIVMTQSPLSLPVTPGEPASISCRSSQSLVYSNGDTYLHWYLQKPGQSPQLLIYKVSNRFSGVPDRFSGSGSGTDFTLKISRVEAEDVGVYYCSQSTHVPWTFGQGTKVEIKR

binding [27]: binds
binding [3]: binds
binding [1]: binds
binding [28]: binds
B6: C2 ChVH AF/ChVK chimeric antibody (antibody, human IgG4 S228P, kappa, V domains shown)
VH: EVQLVESGGGLVQPGGSLKLSCAASGFTFSSYGMSWVRQTPDKRLELVASINSNGGSTYYPDSVKGRFTISRDNAKNTLYLQMSSLKSEDTAMYYCASGDYWGQGSTLTVSS
VL: DVVMTQTPLSLPVSLGDQASISCRSSQSLVYSNGDTYLHWYLQKPGQSPKLLIYKVSNRFSGVPDRFSGSGSGTDFTLKISRVEAEDLGVYFCSQSTHVPWTFGGGTKLEIKR

binding [3]: binds
B7: C2 HuVH2/HuVK1 humanized antibody (antibody, human IgG4 S228P, kappa, V domains shown)
VH: EVQLVESGGGLVQPGGSLRLSCAASGFTFSSYGMSWVRQAPGKGLEWVASINSNGGSTYYPDSVKGRFTISRDNAKNSLYLQMNSLRAEDTAVYYCASGDYWGQGTTVTVSS
VL: DIVMTQSPLSLPVTPGEPASISCRSSQSLVYSNGDTYLHWYLQKPGQSPQLLIYKVSNRFSGVPDRFSGSGSGTDFTLKISRVEAEDVGVYYCSQSTHVPWTFGQGTKVEIKR
